PubChem BioAssay AID686938, Drosophila RNAi Screening Center – 2013

Screen: 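Knock-downs reducing store-operated calcium influx in Drosophila cells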 (primary screen)
Cell system: Drosophila S2R+ cells
Knock-down reagent: long dsRNA against Drosophila genes, about 0.25 µg dsRNA per well, roughly 10,000 cells
Duration: 5 days of knock-down before the calcium assay
Conditions: thapsigargin (SERCA pump blocker) to empty calcium stores; entry signal taken 4 min after adding it
Read-out: 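Duplicate raw fluo-4 intensities per well from a plate reader, at rest and four minutes after thapsigargin emptied calcium stores; entry-to-rest ratio filled for only some wells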
Reading the numbers: calcium entry signal: higher = stronger calcium signal after store depletion; resting calcium signal: higher = higher resting calcium signal
Units: calcium entry signal in fluorescence units; resting calcium signal in fluorescence units
Rule for the call: 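Called when the plate z-score of the entry-to-rest ratio, mean of duplicates, falls below −3; wells with low overall dye signal (Fmax z below −2) or more than five off-targets excluded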
Calls: active = strongly reduced calcium entry; inactive = no strong reduction
The screen tested about 23,000 reagents; shown is a random part of those that have a named target and a result. Of all reagents, 75 (0.33%) were called active. 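Raw plate signals without normalisation; calls rest on plate z-scores that were not deposited; ratio present for only 364 wells.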 Unmarked entries are inactive. Reagents against one gene are numbered here. Reagent sequences are not shown. Not given: the dose of the treatment.

Depletion of CG15439 gave: calcium entry signal, replicate 1 = 4.92e7; calcium entry signal, replicate 2 = 2.38e7; resting calcium signal, replicate 1 = 2.26e7; resting calcium signal, replicate 2 = 1.24e7.
CG17195 gave calcium entry signal, replicate 1 = 3.70e7; calcium entry signal, replicate 2 = 6.73e7; resting calcium signal, replicate 1 = 1.80e7; resting calcium signal, replicate 2 = 2.76e7.
Depletion of unc-5 #1 resulted in: calcium entry signal, replicate 1 = 4.63e7; calcium entry signal, replicate 2 = 4.07e7; resting calcium signal, replicate 1 = 2.21e7; resting calcium signal, replicate 2 = 1.79e7.
After knock-down of unc-5 #2 the results were calcium entry signal, replicate 1 = 3.76e7; calcium entry signal, replicate 2 = 3.92e7; resting calcium signal, replicate 1 = 1.97e7; resting calcium signal, replicate 2 = 1.88e7.
Depletion of unc-5 #3 came out at: calcium entry signal, replicate 1 = 3.33e7; calcium entry signal, replicate 2 = 3.35e7; resting calcium signal, replicate 1 = 1.83e7; resting calcium signal, replicate 2 = 1.61e7.
Against Ser7, the entry reads calcium entry signal, replicate 1 = 4.23e7; calcium entry signal, replicate 2 = 4.60e7; resting calcium signal, replicate 1 = 1.98e7; resting calcium signal, replicate 2 = 2.05e7.
lncRNA:CR43270 (long non-coding RNA::CR43270) showed calcium entry signal, replicate 1 = 4.03e7; calcium entry signal, replicate 2 = 3.19e7; resting calcium signal, replicate 1 = 2.19e7; resting calcium signal, replicate 2 = 1.48e7.
Against CG10747 the deposit lists calcium entry signal, replicate 1 = 4.64e7; calcium entry signal, replicate 2 = 5.27e7; resting calcium signal, replicate 1 = 2.56e7; resting calcium signal, replicate 2 = 2.21e7.
After knock-down of Usp2 (Ubiquitin specific protease 2) #1 the results were calcium entry signal, replicate 1 = 3.35e7; calcium entry signal, replicate 2 = 3.66e7; resting calcium signal, replicate 1 = 1.60e7; resting calcium signal, replicate 2 = 1.63e7.
After knock-down of Usp2 (Ubiquitin specific protease 2) #2 the results were calcium entry signal, replicate 1 = 3.57e7; calcium entry signal, replicate 2 = 4.09e7; resting calcium signal, replicate 1 = 1.76e7; resting calcium signal, replicate 2 = 1.87e7.
With knock-down of Usp2 (Ubiquitin specific protease 2) #3, the screen gave calcium entry signal, replicate 1 = 5.30e7; calcium entry signal, replicate 2 = 4.81e7; resting calcium signal, replicate 1 = 2.48e7; resting calcium signal, replicate 2 = 2.18e7.
For Dr (Drop) #1 the deposit lists calcium entry signal, replicate 1 = 3.06e7; calcium entry signal, replicate 2 = 4.88e7; resting calcium signal, replicate 1 = 1.48e7; resting calcium signal, replicate 2 = 2.48e7.
Silencing of Dr (Drop) #2 came out at: calcium entry signal, replicate 1 = 3.61e7; calcium entry signal, replicate 2 = 2.75e7; resting calcium signal, replicate 1 = 2.00e7; resting calcium signal, replicate 2 = 1.34e7.
CG4455 #1 gave calcium entry signal, replicate 1 = 3.30e7; calcium entry signal, replicate 2 = 3.31e7; resting calcium signal, replicate 1 = 1.58e7; resting calcium signal, replicate 2 = 1.67e7.
After knock-down of CG4455 #2, the screen gave calcium entry signal, replicate 1 = 3.78e7; calcium entry signal, replicate 2 = 3.21e7; resting calcium signal, replicate 1 = 2.33e7; resting calcium signal, replicate 2 = 1.51e7.
Silencing of CG34428 resulted in: calcium entry signal, replicate 1 = 3.26e7; calcium entry signal, replicate 2 = 4.10e7; resting calcium signal, replicate 1 = 1.62e7; resting calcium signal, replicate 2 = 1.79e7.
For Sec16 (Secretory 16) #1, the entry reads calcium entry signal, replicate 1 = 2.34e7; calcium entry signal, replicate 2 = 3.01e7; resting calcium signal, replicate 1 = 1.26e7; resting calcium signal, replicate 2 = 1.57e7.
Against Sec16 (Secretory 16) #2, the entry reads calcium entry signal, replicate 1 = 3.06e7; calcium entry signal, replicate 2 = 4.09e7; resting calcium signal, replicate 1 = 1.47e7; resting calcium signal, replicate 2 = 1.95e7.
After knock-down of CG31174, the record shows calcium entry signal, replicate 1 = 3.48e7; calcium entry signal, replicate 2 = 2.73e7; resting calcium signal, replicate 1 = 1.73e7; resting calcium signal, replicate 2 = 1.28e7.
CG10516 gave calcium entry signal, replicate 1 = 5.73e7; calcium entry signal, replicate 2 = 7.10e7; resting calcium signal, replicate 1 = 2.50e7; resting calcium signal, replicate 2 = 2.89e7.
tor (torso) gave calcium entry signal, replicate 1 = 3.72e7; calcium entry signal, replicate 2 = 5.12e7; resting calcium signal, replicate 1 = 1.75e7; resting calcium signal, replicate 2 = 2.12e7.
Against Reph (Regulator of eph expression) #1, the values are calcium entry signal, replicate 1 = 5.70e7; resting calcium signal, replicate 1 = 2.63e7.
Depletion of Reph (Regulator of eph expression) #2 resulted in: calcium entry signal, replicate 1 = 3.30e7; calcium entry signal, replicate 2 = 5.21e7; resting calcium signal, replicate 1 = 1.62e7; resting calcium signal, replicate 2 = 2.42e7.
Nin (Ninein) showed calcium entry signal, replicate 1 = 5.01e7; resting calcium signal, replicate 1 = 1.81e7.
With knock-down of OtopLa (Otopetrin-like a) #1, the record shows calcium entry signal, replicate 1 = 2.94e7; calcium entry signal, replicate 2 = 6.25e7; resting calcium signal, replicate 1 = 1.43e7; resting calcium signal, replicate 2 = 3.38e7.
With knock-down of OtopLa (Otopetrin-like a) #2, the record shows calcium entry signal, replicate 1 = 3.30e7; calcium entry signal, replicate 2 = 4.27e7; resting calcium signal, replicate 1 = 1.62e7; resting calcium signal, replicate 2 = 1.96e7.
OtopLa (Otopetrin-like a) #3 showed calcium entry signal, replicate 1 = 3.76e7; calcium entry signal, replicate 2 = 3.78e7; resting calcium signal, replicate 1 = 1.81e7; resting calcium signal, replicate 2 = 1.82e7.
